{"source": "PubChem BioAssay AID686938 (Drosophila RNAi Screening Center, 2013)", "screen": "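Fly genes required for calcium entry once internal stores are emptied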 (primary screen)", "system": "Drosophila S2R+ cells", "reagents": "long dsRNA against Drosophila genes, about 0.25 µg dsRNA per well, roughly 10,000 cells", "duration": "5 days of knock-down before the calcium assay", "treatment": "thapsigargin (SERCA pump blocker) to empty calcium stores; entry signal taken 4 min after adding it", "measured": "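Per-well fluo-4 fluorescence in two replicates, unnormalised, measured in resting cells and 4 min after store depletion by the SERCA blocker thapsigargin; ratio of the two present in few wells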", "direction": "calcium entry signal: higher = stronger calcium signal after store depletion; resting calcium signal: higher = higher resting calcium signal", "units": "calcium entry signal in fluorescence units; resting calcium signal in fluorescence units", "call rule": "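Hit if the duplicate-averaged plate z-score for entry over resting signal is under −3; wells with weak total dye signal (Fmax z < −2) or more than 5 off-targets removed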", "meaning of the calls": "active = strongly reduced calcium entry; inactive = no strong reduction", "note": "The screen tested about 23,000 reagents; below is an unselected part of those that have a named target and a result. In the full data, 75 (0.33%) got an active call. 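Raw plate signals without normalisation; calls rest on plate z-scores that were not deposited; ratio present for only 364 wells.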 A number with no mark means an inactive call. Not stated in the record: the dose of the treatment."}
{"target": "Prosalpha3T (Proteasome alpha3 subunit, Testis-specific)", "amplicon": "DRSC15226", "calcium entry signal, replicate 1": 4.60e7, "calcium entry signal, replicate 2": 5.25e7, "resting calcium signal, replicate 1": 2.27e7, "resting calcium signal, replicate 2": 2.22e7}
{"target": "CG10561", "amplicon": "DRSC02068", "calcium entry signal, replicate 1": 5.14e7, "resting calcium signal, replicate 1": 2.51e7}
{"target": "Nil (Nilkantha)", "amplicon": "DRSC15953", "calcium entry signal, replicate 1": 2.79e7, "calcium entry signal, replicate 2": 5.30e7, "resting calcium signal, replicate 1": 1.59e7, "resting calcium signal, replicate 2": 2.31e7}
{"target": "Nil (Nilkantha)", "amplicon": "DRSC23322", "calcium entry signal, replicate 1": 3.13e7, "calcium entry signal, replicate 2": 4.19e7, "resting calcium signal, replicate 1": 1.57e7, "resting calcium signal, replicate 2": 1.94e7}
{"target": "alphaTub84D (alpha-Tubulin at 84D)", "amplicon": "DRSC12623", "calcium entry signal, replicate 1": "1.80e7 (active)", "calcium entry signal, replicate 2": 2.57e7, "resting calcium signal, replicate 1": 1.25e7, "resting calcium signal, replicate 2": 1.76e7}
{"target": "CG15059", "amplicon": "DRSC19633", "calcium entry signal, replicate 1": 4.13e7, "calcium entry signal, replicate 2": 3.51e7, "resting calcium signal, replicate 1": 2.17e7, "resting calcium signal, replicate 2": 1.54e7}
{"target": "RpL24 (Ribosomal protein L24)", "amplicon": "DRSC03185", "calcium entry signal, replicate 1": 1.83e7, "calcium entry signal, replicate 2": 1.29e7, "resting calcium signal, replicate 1": 1.12e7, "resting calcium signal, replicate 2": 8.31e6}
{"target": "CG7352", "amplicon": "DRSC16233", "calcium entry signal, replicate 1": 4.80e7, "calcium entry signal, replicate 2": 3.88e7, "resting calcium signal, replicate 1": 2.09e7, "resting calcium signal, replicate 2": 1.78e7}
{"target": "Oatp74D (Organic anion transporting polypeptide 74D)", "amplicon": "DRSC09491", "calcium entry signal, replicate 1": 3.65e7, "calcium entry signal, replicate 2": 3.35e7, "resting calcium signal, replicate 1": 1.80e7, "resting calcium signal, replicate 2": 1.47e7}
{"target": "Oatp74D (Organic anion transporting polypeptide 74D)", "amplicon": "DRSC10883", "calcium entry signal, replicate 1": 3.95e7, "calcium entry signal, replicate 2": 4.41e7, "resting calcium signal, replicate 1": 1.89e7, "resting calcium signal, replicate 2": 2.88e7}
{"target": "CG42246", "amplicon": "DRSC17520", "calcium entry signal, replicate 1": 3.02e7, "calcium entry signal, replicate 2": 4.13e7, "resting calcium signal, replicate 1": 1.40e7, "resting calcium signal, replicate 2": 1.73e7}
{"target": "CG15362", "amplicon": "DRSC00392", "calcium entry signal, replicate 1": 2.59e7, "calcium entry signal, replicate 2": 2.49e7, "resting calcium signal, replicate 1": 1.24e7, "resting calcium signal, replicate 2": 1.15e7}

Laid out differently: results already given.
RpL24 (Ribosomal protein L24) [DRSC03185] → calcium entry signal, replicate 1: 1.83e7; calcium entry signal, replicate 2: 1.29e7; resting calcium signal, replicate 1: 1.12e7; resting calcium signal, replicate 2: 8.31e6
CG7352 [DRSC16233] → calcium entry signal, replicate 1: 4.80e7; calcium entry signal, replicate 2: 3.88e7; resting calcium signal, replicate 1: 2.09e7; resting calcium signal, replicate 2: 1.78e7
